Data from paper doi:10.1101/2021.10.15.464533.
These are yes or no findings as the source states them, for the method shown. In cells and extracts the contact can be indirect. Some results given as binding are weak or reduced against the parent protein; the word gives no strength. Where a sequence is shown, tags or fusion partners need not be part of it.

Molecular target: T1, APETALA3 (AP3) fused to GFP (Arabidopsis), P35632
T1 chain: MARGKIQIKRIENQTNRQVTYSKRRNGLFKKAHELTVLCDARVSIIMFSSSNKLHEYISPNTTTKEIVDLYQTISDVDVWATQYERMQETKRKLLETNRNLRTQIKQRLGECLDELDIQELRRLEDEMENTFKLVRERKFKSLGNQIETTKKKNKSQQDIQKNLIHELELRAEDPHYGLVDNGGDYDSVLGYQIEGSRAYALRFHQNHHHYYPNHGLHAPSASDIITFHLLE
Assay: co-IP
Details: remark: other sources report otherwise

binding: binds
B1: … (PI) fused to TurboID and 3xMyc, P48007 1-208 (protein)
chain: MGRGKIEIKRIENANNRVVTFSKRRNGLVKKAKEITVLCDAKVALIIFASNGKMIDYCCPSMDLGAMLDQYQKLSGKKLWDAKHENLSNEIDRIKKENDSLQLELRHLKGEDIQSLNLKNLMAVEHAIEHGLDKVRDHQMEILISKRRNEKMMAEEQRQLTFQLQQQEMAIASNARGMMMRDHDGQFGYRVQPIQPNLQEKIMSLVID
modifications: here or on the partner: likely auto-biotinylated (sites not given); biotinylated by PI-TurboID (sites not given)
